According to PMC10163288:
Some of the results follow.

B1: il10ra_site1_normal_mot_HHH_b1_05185_000000011_0001_22_39_H_._HHH_b2_03997_0001_0000100011_0000001_0_af2pred_0001 (protein)
chain: SSSSSSEDEERLELIIELAKRVEDPEVARRLLEMAAELAEKNNNEELLEEIQRLLEELGSSSSSS
B2: il10ra_site1_normal_mot_HHH_b2_03220_af2_000000223_0001_23_40_H_._HHH_b1_01997_0001_0000100006_0000001_0 (protein)
chain: SSSSSTEENEEIWKLLREALQIPDKREAEELVEEAIEIAEEANNEVLLIQARFALRAIKLSSSSS
B3: il10ra_site1_sap_13_mot_HHH_b2_01447_af2_000000258_0001_1_20_H_._HHH_b2_04340_af2_0001_0000100006_0000001_0_0001 (protein)
chain: SELQEILRLVYRLGDPEILRALWKLVRRAAEGDPEAEELLKEILELLREGNREEVHELAKEILEK
B4: il10ra_site1_normal_mot_HHH_b2_08186_000000021_0001_43_56_H_._HHH_b1_04390_0001_0000100009_0000001_0 (protein)
chain: SSSSSSSLSELALRALRLAYKIPDPEESEKLLQEIWEALKKGDEEELRKIVERLEEELSSSSSSS
B5: il10ra_site1_normal_mot_HHH_b2_00943_af2_000000149_0001_1_17_H_._d3c612d18aab0e0945b39b51a1e20ad4_0001_1_af2_0001_0000500040_0000001_0 (protein)
chain: SDEENLQREVERNPNDLNALFLLLQVLAAREGDPELWELLRRATELIREGNPEEAREILQEAIER
B6: il10ra_site1_normal_mot_HHH_b2_08186_000000021_0001_43_56_H_._HHH_b1_04492_0001_0000100010_0000001_0 (protein)
chain: SSSDLEEEIEELLERIEELLKEGDREEALRLLQEAIRLIFRLGDQELLKELWELLREVAEKSSSS
B7: il10ra_site1_sap_16_mot_HHH_b1_06048_000000117_0001_42_56_H_._HHH_b1_02925_0001_0000400020_0000001_0_0001_af2pred_0001 (protein)
chain: SDEERFRVAVRNAAMLAGVEDVEVERENGEFEVTIHADSPAARRLELMVRWVALALNVEVEVEIR
B8: il10ra_site1_sap_10_mot_HHH_b2_05343_000000235_0001_19_35_H_._HHH_b1_05809_0001_0000100005_0000001_0_0001 (protein)
chain: SSSSDEYVRMTLRFAHWLAEEGDRDAVKHFLRVAKELAEKDGDEELKELIEEVEERVEELLSSSS
B9: il10ra_site1_normal_mot_HHH_b1_01879_000000050_0001_1_18_H_._HHH_b1_04021_0001_0000200009_0000001_0_af2pred_dldesign_0_af2pred (protein)
chain: SSSSSELDALLAALEAAVAAGDEAAVRELSVRVSRLALEANNKEVLKKVFDLMVDFYKKLSSSSS
B10: il10ra_site1_sap_26_mot_HHH_b1_01082_af2_000000031_0001_3_19_H_._HHH_b1_04956_0001_0000300027_0000001_0_0001 (protein)
chain: SSSSSDIEERLRLALRFIKWLEEAGDPEAARRILRAAEDIARRNNNPLLEEIEELLEELTSSSSS
B11: il10ra_site1_sap_27_mot_HHH_b2_05423_000000119_0001_22_38_H_._HHH_b1_07464_af2_0001_0000600034_0000001_0_0001_af2pred_dldesign_0_af2pred (protein)
chain: SSSSDPEVEAEVNRLLEEAKKEEDREKRSHLLLQAYSLANAAKDEALVAKVEEVAKEVIKSSSSS
B12: il10ra_site1_normal_mot_HHH_b2_03220_af2_000000223_0001_23_40_H_._HHH_b2_01200_af2_0001_0000600012_0000002_0_af2pred_0001 (protein)
chain: SSSSSDEREANQRVLELLRRAFEVSEEEAEELLKEAEQLAEEVNDPLLEKDVKTAKRLLSSSSSS
B13: il10ra_site1_sap_22_mot_HHH_b2_08186_000000021_0001_43_56_H_._HHH_b1_07644_af2_0001_0000300003_0000001_0_0001 (protein)
chain: SSSSSSDQELIELIMELARLLIRNDEERARELAKEAEELAEELGNERALKMLEDLLKVLSSSSSS
B14: il10ra_site1_normal_mot_HHH_b2_00273_000000062_0001_23_39_H_._HHH_b1_08542_0001_0000100001_0000001_0 (protein)
chain: SSSSSEEEERLEELLEEVEELIKEGDEEEALRLLLELIRLAFRASDEEVVRRIWELAKLIASSSS
B15: il10ra_site1_normal_mot_7d538683ae38ff56261eb02f12605454_0001_af2_000000062_0001_54_65_H_._HHH_b2_04392_af2_0001_0000500019_0000001_0_af2pred_0001 (protein)
chain: SSSSSEEARQALLAARLAIEWAYEQGDEHLAEAVFRSFAQALKELGDEEAVEQLEELFEKLSSSS
B16: il10ra_site1_normal_mot_HHH_b2_04677_000000098_0001_1_19_H_._HHH_b1_03771_0001_0000500041_0000001_0 (protein)
chain: SSSSTEERQELVELLREIFRLLLRGNPEEAKELIEEAQKLAKELGNESALRVLESLEQIVDSSSS
B17: il10ra_site1_normal_mot_HHH_b2_07521_000000141_0001_20_37_H_._HHH_b2_04525_af2_0001_0000500008_0000001_0 (protein)
chain: SSSSSDEELVKRSVRRLLKAAKEIEDEEYVRLALRFARALAEDNNNEEVLELVEEVARRLSSSSS
B18: il10ra_site1_normal_mot_HHH_b2_07521_000000141_0001_20_37_H_._HHH_b2_06530_0001_0000300044_0000001_0_af2pred_0001 (protein)
chain: SSSDRDEEQLRLTIRFAKWVLEQGDPEAAEFLVRAAVELARKLGDEELLKEAEELLEEIEKSSSS
B19: il10ra_site1_normal_mot_HHH_b2_07144_000000289_0001_1_18_H_._HHH_b2_05888_0001_0000200007_0000001_0 (protein)
chain: SSSSDSQELYKLSREAAELLRNGNPEEARKVLEEAEELAQELNNPVLLITIEHLLRDIEESSSSS
B20: il10ra_site1_sap_22_mot_HHH_b1_02420_000000033_0001_20_36_H_._HHH_b2_07350_0001_0000700038_0000002_0_0001_af2pred_0001 (protein)
chain: SIEELVRLIVELAGAPPEVERQLQLVVRAAKRLSPRSFEIMQRRLEEVIENNDEEAAEEIIKLFT
B21: il10ra_site1_normal_mot_HHH_b1_05056_000000217_0001_1_20_H_._HHH_b2_01071_af2_0001_0000100001_0000001_1 (protein)
chain: SSSSDEEREEVERLLEEAEEITDPREASEVLLRALRLAWESNDPELLRLVWEVVRRVEELLSSSS
B22: il10ra_site1_normal_mot_HHH_b1_01779_000000096_0001_43_57_H_._HHH_b2_05490_af2_0001_0000100007_0000001_0_af2pred_0001 (protein)
chain: SSSSSDEEKLRLAIRFAKHLVEAGDPEAARIILEAAIRVARLLGDEELLEEAEEVLERLDSSSSS
B23: il10ra_site1_sap_20_mot_1c3c3e46dde0d4e4be3ec3dd9add6289_0001_000000096_0001_34_50_H_._HHH_b1_08757_0001_0000100004_0000002_0_0001 (protein)
chain: SSSSSDNERAVETMLKAAKELDDPEYVRLALRFAEMTARALNDPELERLVEEVEEEIEKKSSSSS
B24: il10ra_site1_sap_11_mot_HHH_b1_05357_000000034_0001_23_39_H_._HHH_b2_01717_0001_0000400019_0000003_0_0001 (protein)
chain: SSSSDELRERAEELLEEAEERNDEILAKTARAVLDVVRRAEELGNPEYAELALRFLEQSLSSSSS

target: il10ra, Q13651; assay: yeast display titration

Row | Binder | apparent Kd
1 | B1 | inactive: no binding seen
2 | B2 | inactive: no binding seen
3 | B3 | inactive: no binding seen
4 | B4 | inactive: no binding seen
5 | B5 | inactive: no binding seen
6 | B6 | inactive: no binding seen
7 | B7 | inactive: no binding seen
8 | B8 | inactive: > 1040 nM
9 | B9 | inactive: no binding seen
10 | B10 | inactive: no binding seen
11 | B11 | inactive: no binding seen
12 | B12 | inactive: no binding seen
13 | B13 | inactive: no binding seen
14 | B14 | inactive: no binding seen
15 | B15 | inactive: no binding seen
16 | B16 | inactive: no binding seen
17 | B17 | inactive: no binding seen
18 | B18 | inactive: no binding seen
19 | B19 | inactive: no binding seen
20 | B20 | inactive: no binding seen
21 | B21 | inactive: no binding seen
22 | B22 | inactive: no binding seen
23 | B23 | inactive: no binding seen
24 | B24 | inactive: no binding seen

An excerpt of these results, tab-delimited:
Row	Binder	apparent Kd
16	B16	inactive: no binding seen
22	B22	inactive: no binding seen
